Measurements from US20160015828A1 (AbbVie / Abbott, published 2016).
Changes are numbered by the printed parent chain. Results are given in words; binding and its absence hold for the method and conditions named. Some entries that bind do so weakly or less than the wild type.

Protein sequences, listed by entry. Tags and fused reporters are not part of them. Lines headed by an entry give the natural chain unless they say otherwise; changes in a name come on top.
UniProt Q9NYJ7: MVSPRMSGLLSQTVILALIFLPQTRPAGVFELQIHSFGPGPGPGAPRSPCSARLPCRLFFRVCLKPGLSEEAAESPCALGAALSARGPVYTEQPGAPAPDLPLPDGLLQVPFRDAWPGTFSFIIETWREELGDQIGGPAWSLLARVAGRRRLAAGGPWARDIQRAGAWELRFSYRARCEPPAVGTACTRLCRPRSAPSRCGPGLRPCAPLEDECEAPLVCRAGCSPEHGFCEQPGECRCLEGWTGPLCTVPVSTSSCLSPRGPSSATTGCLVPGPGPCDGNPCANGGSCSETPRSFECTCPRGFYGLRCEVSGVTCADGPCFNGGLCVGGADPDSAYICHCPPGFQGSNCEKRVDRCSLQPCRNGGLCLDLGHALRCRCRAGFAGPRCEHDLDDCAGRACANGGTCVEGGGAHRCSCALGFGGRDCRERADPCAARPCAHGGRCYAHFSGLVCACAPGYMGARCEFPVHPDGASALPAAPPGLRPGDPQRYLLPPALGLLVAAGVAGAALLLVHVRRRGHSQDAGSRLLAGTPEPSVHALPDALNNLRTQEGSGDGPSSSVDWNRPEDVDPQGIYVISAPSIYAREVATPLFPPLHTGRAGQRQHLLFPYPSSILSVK

B1: SC16.20 (antibody, V domains shown)
VH: QVQLQQSGTELVRPGTSVRVSCKASGYAFGNHLIEWVKQRPGQGLEWIGVINPGTGGTHYNEKFKDKARLTADKSSNTAYMHLNSLTSDDSAVYFCARSPYDYHEGAMDYWGQGTSVTVSS
VL: EIQMTQSPSSMSASLGDRITITCQATQDIVKNLNWYQQKPGKPPSFLIYYATELAEGVPSRFSGSGSGSDYSLTIRNLESEDFADHYCLQFYEFPFTFGAGTKLELK
B2: SC16.45 (antibody, V domains shown)
VH: QVQLQQSGADLVRPGTSVKVSCKASGYSFTNYLIEWVKQRPGQGLEWIGVINPGSGGTHYNEKFKDKAVLTADKSSTTAHMQLSSLTSDDSAVYFCARSPYDYNDGAMDYWGQGTSVTVSS
VL: B1 VL with S60A, R76S, H86Y, Y87H
B3: SC16.149 (antibody, V domains shown)
VH: QVQLKESGPGLVAPSQSLSITCAVSGFSLTSFGVHWVRQPPGKGLEWLGVIWAGGSTNYYSALMSRLSISIDNSKSQVFLKMNSLQTDDTAMYYCARDWEGWFAYWGQGTLVTVSA
VL: DIQMNQSPSSLSASLGDTITITCHASQNINVWLSWYQQKPGNIPKLLIYKASHLHTGVPSRLSGSGSGTGFTLTISSLQPEDIATYYCQQGQSYPFTFGSGTTLEIK
B4: SC16.29 (antibody, V domains shown)
VH: QVQLQQSGAELARPGASVKLSCKASGYTFTDQYINWVKQRTGQGLEWIGEIYPGRGNTYYNEKFKGKATLTADKSSSTAYMQLSSLTSEDSAVYFCAREDGGYDDAWFAYWGQGTLVTVSA
VL: QIVLTQSPAIMSASPGEKVTITCSASSSVSYMHWFQQKPGTSPKLWIYTTSNLASGVPARFSGSGSGTSYSLTVSRMEAEDAATYYCQQRSLYPYTFGGGTKVEIK
B5: SC16.3 (antibody, V domains shown)
VH: QVTLKESGPGILQPSQTLSLTCSFSGFSLSTSGMGVGWIRQPSGKGLEWLAHIWWDDVKRYNPALKSRLTISKDTSSSQVFLKIASVDTADTATYYCARIADYGGDYYAMDYWGQGTSVTVSS
VL: QIVLTQSPAIMSVSLGERVTMTCTASSSVSSSYLHWYQQKPGSSPKLWIYSTSNLASGVPARFSGSGSGTSYFFTISSMEAEDAATYYCHQYHRSPFTFGAGTKLKIR
B6: SC16.10 (antibody, V domains shown)
VH: QVTLKESGPGILQSSQTLSLTCSFSGFSLSTSGMGVGWIRQPSGKGLEWLAHIWWDDVKRYNPVLKSRLTISKDTSSSQVFLKIASVDTADTATYYCARLVDDLYYFDYWGQGTTLTVSS
VL: B5 VL with V13A, A61T, F73S, F74L, A101S, K106E, R108K
notes: murine mAb; V regions only
B7: SC16.30 (antibody, V domains shown)
VH: QVTLKESGPGILQPSQTLSLTCSFSGFSLSTSGMGVGWIRQPSGKGLEWLAHIWWDDVKRYKPALKSRLTVSKDTSSNQVFLKIATVDAADTGTYYCARIVDGHPPFAYWGQGTLVTVSA
VL: B5 VL with A9T, V13A, S30T, F73S, F74L, Y92F, A101S, K106E, R108K
B8: SC16.148 (antibody, V domains shown)
VH: QIQLVQSGPELKKPGETVKISCKASGYTLTNYGMNWVKQAPGKGLKWMGWINTYTGEPTYADDFKGRFAFSLETSARIVYLQINNLKNEDTATYFCAKYEAHEGFVYWGQGTLVTVSA
VL: QIVLTQSPAIMSASPGEKVTMTCSASSSVSYMYWYQQKPGSSPRLLIYDTSNLASGVPVRFSGSGSGTSYSLTISRMEAEDTATYYCQEWSNNPLTFGDGTKLELK
B9: SC16.49 (antibody, V domains shown)
VH: QVQLQQSGPELVKPGTLVKISCKASGYTFTSYDINWVKQRPGQGLEWIGWIYPGDGNTKYSEKFKGKATLTADKSSSTAYMQLTSLTSENSAVYFCARDYDYPFAYWGQGTLVTVSA
VL: DIKMTQSPSSMYASLGERVTITCKASQDINSYLSWFQQKPGKSPKTLIYRANRLVDGVPSRFSGSGSGQDYSLTITSLEYEDMGIYYCLQYDEFPLTFGAGTKLELK
B10: SC16.55 (antibody, V domains shown)
VH: EVQLVESGGGLVQPKGSLKLSCAVSAFTFTTYAMNWVRQAPGKGLEWVARIRNKSNNYATYYADSVKDRFTISRDDSQSMLYLQMNNLKIEDTAMYYCVFYYDYVYWGQGTLVTVSA
VL: B9 VL with S34N, T76S, L96Y, A100G, L106I
B11: SC16.47 (antibody, V domains shown)
VH: EVQLQQSGPELVKPGASVKISCKASGYSFSRFYMHWVKQSPENSLEWIGEINPSTGGTSYNQKFKGKATLTVDKSSSTAYMQLKSLTSEESAVYYCTRGYGSNCYFDVWGAGTTVTVST
VL: DVVLTQSPLSLPVNIGDQASISCKSTKSLLNSDGFTYLDWYLQRPGQSPQFLIYLVSNRFSGVPDRFSGSGSGTDFTLKISRVEAEDLGVYYCFQSNYLPLTFGAGTKLELR
B12: SC16.52 (antibody, V domains shown)
VH: QVQLKESGPGLVAPSQSLSITCAVSGFSLTSFAIHWFRKPPGKGLEWLGVIWTGGTTNYNSALMSRLSISKDNSKSQVFLKMNSLQTDDTAMYYCARDDYDNNYAMDYWGQGTSVTVSS
VL: DIQMIQSPSSMFASLGDRVSLSCRASQGIRGTLDWYQQKPNGTIKLLIYSTSNLNSGVPSRFSGSGSGSDYSLTISSLESEDFADYYCLQRNAYPLTFGAGTKLELK
B13: SC16.38 (antibody, V domains shown)
VH: EVQLQQSGAELVKPGASVKLSCTVSGFNIKDTYIHWVKQRPEQGLEWIGRIDPANGNTKYDPKFQGKATITADTSSNTAYLQLSSLTSEDTAVYYCARPTGYFEYWGQGTTLTVSS
VL: QIVLTQSPAIMSASPGEKVTMTCSASSSINYMHWYQQKPGTSPKRWIYDTSKLASGVPARFSGSGSGTSYSLTISSMEAEDAATYYCHQRSTWTFGGGTKLEIK
B14: SC16.18 (antibody, V domains shown)
VH: EVKLEESGGGLVQPGESMKLSCAASGFTFSDAWMDWVRQSPEKGLEWVAEIRNKANNHATYYAESVKGKFTISRDDSKSRVYLQMNNLRAADTGIYYCTAYSNFAYWGQGTLVTVST
VL: DIQMTQTTSSLSASLGDRVTISCRASQNIINYLNWYQQKPDGTVKLLIYYTSRLHSGVPSRFSGSGSGTDYSLTISNLEPEDIATYYCQQYSERPYTFGGGTKLEIK
B15: SC16.39 (antibody, V domains shown)
VH: B14 VH with P14F, E16G, A63P, K69R, A91E, A100G, N103S, T117A
VL: B14 VL with N28D, I29V, G68R
B16: SC16.35 (antibody, V domains shown)
VH: DVQLQESGPGLVKPSQSLSLTCTVTGYSITSDYAWNWIRQFPGNKLEWMGYISYSGSTSYNPSLKSRISITRDTSKNQFFLQLNSVTTEDTATYYCARFYYGSSYAMDYWGQGTSVTVSS
VL: B14 VL with N28D, I30S, P80Q, Y87F, Y91G, S92N, E93T, R94L
B17: SC16.42 (antibody, V domains shown)
VH: QIQLVQSGPELKKPGETVKISCKASGYTFTTAGMQWVQKMPGKGFKWIGWINTHSGEPKYADDFKGRFAFSLETSASTAYLQISNLKDEDTATFFCAPLWSDSSFAYWGQGTLVTVSA
VL: DVLMTQSPLSLSVSLGDQASISCRSSQNIVHSDRYTYLEWYLQKPGQSPKLLIYGVSNRFSGVPDRFSGSGSGTDFTLKISRVEAEDMGVYYCFQGTHVPYTFGGGTKLEIK
B18: SC16.23 (antibody, V domains shown)
VH: QVTLKESGPGILQPSQTLSLTCSFSGFSLSTSNTGIGWIRQPSGTGLEWLAHIWWNDDKYYNPSLKSRLTISKETSNNQVFLKITNVDTADTASYFCVQIGRDYSNYAWYFDVWGAGTTVTVSS
VL: QIVLTQSPAIMSASPGEKVTLTCSASSSVSSRYLYWYQQKPGSSPKLWIYSTSNLASGVPARFSGSGSGTSYSLIISSMEAEDAASYFCHQWSNYPLTFGAGTKLELK
B19: SC16.19 (antibody, V domains shown)
VH: EVQLQQSGAELVRPGASVKLSCTASGFNIKDSLLHWVKQRPEKGLEWIGWIDPEDGETKYAPNFQDKATITTDSSSNTAYLQLISLTSVDTAIYYCAYGNYVRHFDYWGQGTTLTVSS
VL: DIQMTQSPSSLSASLGGKVTFTCKASQDIHKYVAWYQHKPGKGPRLLIHYTSTLQPGISSRFSGSGSGRDYSFSISNLEPEDIATYYCLQYNNLYTFGGGTKLEIK
B20: SC16.21 (antibody, V domains shown)
VH: QVQLQQSGPELVKPGASVKISCKASGYAFSSSWMNWVKQRPGKGLEWIGRIYPGDGDTNYNGKFKGKATLTADKSSSTAYMQLSSLTSEDSAVYFCAMGIYNYDGSRYYSMDYWGQGTSVTVSS
VL: DIVMTQSPSSLAMSVGQKVTMSCKSSQSLLNSSNQKNYLAWYQQEPGQSPKLLVSFASTRESGVPDRFTGSGSGTDFTLTISGVQAEDLAVYYCQQHYSIPLTFGAGTKLELK
B21: SC16.5 (antibody, V domains shown)
VH: QVTLKESGPGILQPSQTLSLTCSFSGFSLSTSGMGVGWIRQPSGEGLEWLADIWWDDNKYYNPSLKSRLTISKDTSSNQVFLKITSVDTADTATYYCARRVNYVYDPYYAMDYWGQGTSVTVSS
VL: QIVLTQSPAIMSASPGEKVTMTCSASSSVSYMHWYQQKSGTSPKRWIYDTSKLASGVPARFSGSGSGTSYSLTISSMEAEDAATYYCQQWTRNPLTFGAGTKLELK
B22: SC16.25 (antibody, V domains shown)
VH: B21 VH with A51T, K83N, V104Y
VL: B21 VL with T50S, T91S, R92S
notes: murine mAb; V regions only

molecular target: DLL3 (UniProt Q9NYJ7); assay: screening on immobilized DLL3 or 293-hDLL3 cells

| binding | Binder |
| --- | --- |
| binds | B1 |
| binds | B2 |
| binds | B3 |
| binds | B4 |
| binds | B5 |
| binds | B6 |
| binds | B7 |
| binds | B8 |
| binds | B9 |
| binds | B10 |
| binds | B11 |
| binds | B12 |
| binds | B13 |
| binds | B14 |
| binds | B15 |
| binds | B16 |
| binds | B17 |
| binds | B18 |
| binds | B19 |
| binds | B20 |
| binds | B21 |
| binds | B22 |
